Measured values as given in paper PMC11574364.
Construct, isoform or probe ends are uncertain for at least one entry. For some assays here: Tags and fusion partners may be left off the protein sequences shown.

By UniProt entry, the sequences of proteins in these tests, tags left out. Where a name states a change or a piece, a line headed by the entry shows the natural chain unless it says otherwise.
UniProt Q05048: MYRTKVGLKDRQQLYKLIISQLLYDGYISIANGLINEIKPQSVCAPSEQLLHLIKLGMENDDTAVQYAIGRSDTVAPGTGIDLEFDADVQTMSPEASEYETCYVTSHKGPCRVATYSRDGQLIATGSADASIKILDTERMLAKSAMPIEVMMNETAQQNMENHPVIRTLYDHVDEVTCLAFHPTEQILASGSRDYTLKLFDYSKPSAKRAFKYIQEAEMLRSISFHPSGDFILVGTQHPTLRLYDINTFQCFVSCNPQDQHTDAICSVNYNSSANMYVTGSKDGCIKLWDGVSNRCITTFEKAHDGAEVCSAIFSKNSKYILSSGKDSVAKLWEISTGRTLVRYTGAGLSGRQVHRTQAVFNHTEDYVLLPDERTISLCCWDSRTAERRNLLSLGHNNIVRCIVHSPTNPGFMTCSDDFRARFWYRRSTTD
UniProt O43684, whole entry: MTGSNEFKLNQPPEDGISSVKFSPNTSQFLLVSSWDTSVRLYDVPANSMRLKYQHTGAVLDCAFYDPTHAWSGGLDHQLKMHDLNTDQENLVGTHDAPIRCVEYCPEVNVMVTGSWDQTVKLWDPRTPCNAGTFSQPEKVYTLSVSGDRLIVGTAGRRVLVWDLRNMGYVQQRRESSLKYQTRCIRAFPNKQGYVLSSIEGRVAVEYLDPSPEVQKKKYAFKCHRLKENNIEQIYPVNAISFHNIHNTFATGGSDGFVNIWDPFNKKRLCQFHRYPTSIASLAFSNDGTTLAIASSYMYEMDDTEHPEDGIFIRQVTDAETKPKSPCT

Legend:
Experiment in all cases: human ORF protein microarray
CSTF1 (Homo sapiens) = CSTF1 (Homo sapiens) (UniProt Q05048); conditions: 5' phosphate; Domain array: 20 mM Tris-HCl pH 7.4, 200 mM KCl, 0.2 mM EDTA, 0.05% NP40, 2 ug/ul heparin, overnight 4 C. ORF array: PBS pH 7.0 with RNase inhibitor, 100 ng RNA, 1 h.; recombinant protein; protein details: N-terminal GST-6xHis; label: internal DY647 at G18; letters put together from the description
DOK3 (Homo sapiens) = biological target: T1, DOK3 (Homo sapiens) (UniProt Q7L591); conditions: 5' phosphate, Domain array: 20 mM Tris-HCl pH 7.4, 200 mM KCl, 0.2 mM EDTA, 0.05% NP40, 2 ug/ul heparin, overnight 4 C. ORF array: PBS pH 7.0 with RNase inhibitor, 100 ng RNA, 1 h., recombinant protein, protein details: N-terminal GST-6xHis
T1 sequence (looked up, limits assumed): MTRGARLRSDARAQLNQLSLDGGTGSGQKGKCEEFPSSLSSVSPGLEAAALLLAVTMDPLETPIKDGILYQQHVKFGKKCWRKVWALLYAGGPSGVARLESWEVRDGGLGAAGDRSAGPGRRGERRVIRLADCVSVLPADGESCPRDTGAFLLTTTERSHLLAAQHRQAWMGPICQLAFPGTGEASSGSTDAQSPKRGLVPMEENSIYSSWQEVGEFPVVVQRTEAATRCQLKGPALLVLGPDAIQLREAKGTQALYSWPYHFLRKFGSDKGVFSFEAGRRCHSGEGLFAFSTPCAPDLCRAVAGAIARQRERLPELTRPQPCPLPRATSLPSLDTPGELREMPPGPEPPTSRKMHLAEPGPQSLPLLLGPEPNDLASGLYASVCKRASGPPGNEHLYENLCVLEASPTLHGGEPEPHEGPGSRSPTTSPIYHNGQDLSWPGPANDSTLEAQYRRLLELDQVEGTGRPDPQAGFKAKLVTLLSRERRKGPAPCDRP

TBX5 (Homo sapiens) = biological target: T2, TBX5 (Homo sapiens) (UniProt Q99593); conditions: 5' phosphate, Domain array: 20 mM Tris-HCl pH 7.4, 200 mM KCl, 0.2 mM EDTA, 0.05% NP40, 2 ug/ul heparin, overnight 4 C. ORF array: PBS pH 7.0 with RNase inhibitor, 100 ng RNA, 1 h., recombinant protein, protein details: N-terminal GST-6xHis
T2 sequence (looked up, limits assumed): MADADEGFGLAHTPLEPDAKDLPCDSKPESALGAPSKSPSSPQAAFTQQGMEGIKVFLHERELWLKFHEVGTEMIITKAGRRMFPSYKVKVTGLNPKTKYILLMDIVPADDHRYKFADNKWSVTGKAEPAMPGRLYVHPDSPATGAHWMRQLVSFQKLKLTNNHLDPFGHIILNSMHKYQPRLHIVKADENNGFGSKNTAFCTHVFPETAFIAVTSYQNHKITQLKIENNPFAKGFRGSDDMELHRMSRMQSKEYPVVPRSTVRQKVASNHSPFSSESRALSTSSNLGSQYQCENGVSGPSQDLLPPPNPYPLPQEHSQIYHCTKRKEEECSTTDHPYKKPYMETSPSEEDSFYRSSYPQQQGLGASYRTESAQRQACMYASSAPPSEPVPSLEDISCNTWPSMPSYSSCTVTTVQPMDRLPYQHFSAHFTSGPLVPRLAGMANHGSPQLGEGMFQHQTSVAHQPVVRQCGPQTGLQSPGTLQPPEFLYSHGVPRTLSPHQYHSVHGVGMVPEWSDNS

ZIC3 (Homo sapiens) = biological target: T3, ZIC3 (Homo sapiens) (UniProt O60481); conditions: 5' phosphate; Domain array: 20 mM Tris-HCl pH 7.4, 200 mM KCl, 0.2 mM EDTA, 0.05% NP40, 2 ug/ul heparin, overnight 4 C. ORF array: PBS pH 7.0 with RNase inhibitor, 100 ng RNA, 1 h.; recombinant protein; protein details: N-terminal GST-6xHis; label: internal DY647 at G18; letters put together from the description
T3 sequence (looked up, limits assumed): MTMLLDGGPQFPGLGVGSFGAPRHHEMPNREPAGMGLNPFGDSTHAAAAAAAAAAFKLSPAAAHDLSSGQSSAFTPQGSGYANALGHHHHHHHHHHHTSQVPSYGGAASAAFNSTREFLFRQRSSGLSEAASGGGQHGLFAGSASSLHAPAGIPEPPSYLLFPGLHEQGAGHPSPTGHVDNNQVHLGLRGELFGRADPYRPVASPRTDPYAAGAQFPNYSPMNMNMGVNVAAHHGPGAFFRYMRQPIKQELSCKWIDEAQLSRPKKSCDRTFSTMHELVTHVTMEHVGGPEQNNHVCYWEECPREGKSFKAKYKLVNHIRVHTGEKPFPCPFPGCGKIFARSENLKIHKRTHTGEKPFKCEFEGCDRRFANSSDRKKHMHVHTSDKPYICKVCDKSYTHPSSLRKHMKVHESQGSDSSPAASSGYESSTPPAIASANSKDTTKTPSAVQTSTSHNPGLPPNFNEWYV

C7orf33 (Homo sapiens) = biological target: T4, C7orf33 (Homo sapiens) (UniProt Q8WU49); conditions: 5' phosphate; Domain array: 20 mM Tris-HCl pH 7.4, 200 mM KCl, 0.2 mM EDTA, 0.05% NP40, 2 ug/ul heparin, overnight 4 C. ORF array: PBS pH 7.0 with RNase inhibitor, 100 ng RNA, 1 h.; recombinant protein; protein details: N-terminal GST-6xHis; label: internal DY647 at G18; letters put together from the description
T4 sequence (looked up, limits assumed): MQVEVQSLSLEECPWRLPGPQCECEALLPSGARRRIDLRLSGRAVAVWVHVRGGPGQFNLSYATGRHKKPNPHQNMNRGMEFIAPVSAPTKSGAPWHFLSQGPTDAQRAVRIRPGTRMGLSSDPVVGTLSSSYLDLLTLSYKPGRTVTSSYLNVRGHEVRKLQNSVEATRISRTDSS

NARF (Homo sapiens) = biological target: T5, NARF (Homo sapiens) (UniProt Q9UHQ1); conditions: 5' phosphate, Domain array: 20 mM Tris-HCl pH 7.4, 200 mM KCl, 0.2 mM EDTA, 0.05% NP40, 2 ug/ul heparin, overnight 4 C. ORF array: PBS pH 7.0 with RNase inhibitor, 100 ng RNA, 1 h., recombinant protein, protein details: N-terminal GST-6xHis
T5 sequence (looked up, limits assumed): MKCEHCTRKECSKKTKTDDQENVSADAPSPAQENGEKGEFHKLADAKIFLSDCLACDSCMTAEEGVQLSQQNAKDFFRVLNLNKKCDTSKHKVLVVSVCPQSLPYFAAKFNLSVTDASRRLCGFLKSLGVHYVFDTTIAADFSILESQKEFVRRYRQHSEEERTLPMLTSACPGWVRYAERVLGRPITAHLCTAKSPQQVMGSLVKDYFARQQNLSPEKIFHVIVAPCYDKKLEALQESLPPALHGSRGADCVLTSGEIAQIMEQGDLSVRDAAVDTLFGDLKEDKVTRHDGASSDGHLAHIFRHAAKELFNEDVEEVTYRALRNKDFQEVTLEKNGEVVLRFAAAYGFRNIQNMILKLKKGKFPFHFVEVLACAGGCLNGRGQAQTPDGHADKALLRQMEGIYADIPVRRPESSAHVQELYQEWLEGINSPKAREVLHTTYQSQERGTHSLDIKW

BUB3 (Homo sapiens) = BUB3 (Homo sapiens) (UniProt O43684); conditions: 5' phosphate; amino-C6 U at position 18; Domain array: 20 mM Tris-HCl pH 7.4, 200 mM KCl, 0.2 mM EDTA, 0.05% NP40, 2 ug/ul heparin, overnight 4 C. ORF array: PBS pH 7.0 with RNase inhibitor, 100 ng RNA, 1 h.; recombinant protein; protein details: N-terminal GST-6xHis; label: internal Cy5 or DY647
[1] = label: internal DY647 at G18, letters put together from the description
[2] = amino-C6 U at position 18, label: internal Cy5 or DY647

Measured: binding result

CAGUGCAAUGAUGAAAGGGCAU [miR-130b (internal labeling)]
binds: CSTF1 (Homo sapiens) | DOK3 (Homo sapiens); [1] | TBX5 (Homo sapiens); [1] | ZIC3 (Homo sapiens)

UAGCUUAUCAGACUGAUGUUGA [miR-21 (internal labeling)]
binds: C7orf33 (Homo sapiens) | NARF (Homo sapiens); [1] | ZIC3 (Homo sapiens)

UGAGGUAGUAGGUUGUGUGGUU [let-7b (internal labeling)]
binds: BUB3 (Homo sapiens) | DOK3 (Homo sapiens); [2] | NARF (Homo sapiens); [2] | TBX5 (Homo sapiens); [2]
